Test results from patent US9707220B2 (The United States of America, as represented by the …, priority 2005, dated 2017).
No dose or concentration is given here for some results.

Tested on: healthy volunteers (HV)
Experiment: Example 1: dose-finding study, MADRS in healthy volunteers
Format: in vivo, human

CN1C2C[C@H](OC(=O)C(CO)c3ccccc3)CC1[C@H]1OC21 (stereo partly drawn) [scopolamine]
0±: MADRS score, Session 2, HV (mean) | MADRS score, Session 3, HV (mean) | MADRS score, Session 4, HV (mean)
